Data reported in PubChem BioAssay AID1347075 (National Center for Advancing Translational Sciences (NCATS), 2019).
Values joined by “and” are separate entries in the source; they are usually repeats but may differ in a detail not shown here. Equal entries are not always repeated. In all, about 400,000 compounds went through this assay and about 5,500 (1.4%) were called active. The inconclusive results got no clear call from the source; some entries with a clear call stand among them for comparison. The call rests on the fitted dose curve; in most records, active means well fitted cell-killing curve with a large enough effect; inconclusive means small, poorly fitted or top-dose-only effect, or effect the other way; inactive means flat fitted curve, though single readings scatter. Potencies of inconclusive entries are doubtful fits and often do not repeat.

Experiment: qHTS assay for MDR1-selective chemotherapeutics: Primary screen using the parental adenocarcinoma cell KB-3-1; further: nearly all actives have a fitted effect of over 60% in size
Conditions: KB-3-1 viability, CellTiter-Glo ATP luminescence, 72 h; activity change, negative = cytotoxic: at 46.1 µM (top of the series)
Description: A prime difficulty in effectively treating cancer is the development of cellular resistance to multiple structurally unrelated anticancer drugs, a phenomenon known as multidrug resistance (MDR). […] Numerous strategies to overcome P-gp-mediated MDR have been explored, including the design of drugs that evade recognition and efflux, and development of inhibitors to block efflux and restore drug accumulation. […] An alternative approach is to exploit resistance by identifying drugs that target MDR cells over the non-resistant parental cells from which they were selected. […] The development of MDR1-selective agents represents a new strategy for resolving multidrug resistance, as it remains a long-standing clinical challenge for cancer chemotherapy.
Our goal is to identify compounds that selectively kill P-gp-expressing MDR cells. We will identify MDR1-selective compounds by comparing toxicity of compounds in the screening library against parental, drug-naive (KB-3-1) adenocarcinoma cells as well as their drug-selected MDR sub-line (KB-V1). The differential toxicity of compounds against these two cell lines will be used to identify MDR1-selective compounds, whose cytotoxicity is potentiated, rather than diminished, by P-gp expression. This assay will be utilized to conduct a quantitative high-throughput screen (qHTS) in collaboration with the NIH Chemical Genomics Center to identify selective agents, and probe hits arising from the screen will be validated using secondary assays and characterized through a well-established follow-up research program. This screen was run against the entire NCGC library collection of about 400,000 compounds.
NIH Molecular Libraries Probe Production Network [MLPCN]
NIH Chemical Genomics Center [NCGC]
PI: Michael Gottesman PhD, National Cancer Institute, NIH
Briefly, 5 microL of media containing either KB-3-1 cells (columns 1-2, 4-48) are dispensed into Greiner white, treated solid-bottom 1536-well assay plates (media-only control is added to column 3). Compounds are then transferred via Kalypsys pin tool equipped with 1536-pin array (10 nL slotted pins, V&P Scientific, San Diego, CA). Following addition of compound, the plates are incubated at 37 degrees C for 72 hours. CellTiter-Glo (2.5 µL/well) is then added, and the plates are read in a ViewLux reader (Perkin-Elmer, clear luminescence filter, 1 second exposure, 1x binning) following a 10 minute incubation. All cells are dispensed in DMEM phenol-red free media containing 10% FBS.
Library plates were screened starting from the lowest and proceeding to the highest concentration. Vehicle-only plates, with DMSO being pin-transferred to columns 5-48, will be inserted uniformly at the beginning and the end of each library in order to monitor and record any shifts in the background, which can be affected by reagent dispensers or loss in enzyme activity over time. Screening data will be corrected, normalized, and concentration-effect relationships will be derived by using publicly-available NCGC, NCATS curve fitting algorithms (http://ncgc.nih.gov/pub/openhts).
On the % scale 0 is the no-effect control and ±100 the full control effect; potency means the concentration at half of the fitted maximal effect.

Row | Structure (SMILES) | Potency | activity change, negative = cytotoxic
1 | COc1ccc2c(c1)C(C)=CC(C)(C)N2S(=O)(=O)c1ccc(Br)cc1 | active: 4.11 µM | –
2 | O=C/C(=C\Nc1ccc(Cl)cn1)c1nc2cc(Cl)ccc2o1 | inconclusive: 16.4 µM [cytotoxic, single point] | –
3 | Cc1nn(-c2ccc(N3CCOCC3)nn2)c(C)c1CCC(=O)N1CCN(C)CC1 | inactive | –
4 | Cc1ccc(Cl)cc1N1CCN(C(=O)c2cnn(C(C)(C)C)c2C2CCN(C(=O)OC(C)(C)C)CC2)CC1 | inconclusive: 16.4 µM [cytotoxic, single point] | –
5 | CS(=O)(=O)N(CCCC(=O)N1CCCCCC1)c1cccc(Cl)c1 | inactive | –
6 | COc1cc(/C=C2/SC(=O)NC2=O)ccc1OC(=O)c1ccco1 | active: 10.3 µM | –
7 | COC(=O)C[C@H]1c2cc(F)ccc2S(=O)(=O)N1c1ccc(N(C)C)cc1 | inconclusive: 29.1 µM [cytotoxic, single point] | –
8 | O=C(c1cccs1)N1CCN=C1SCc1cccnc1 | inactive | –
9 | CSc1ccc(CN2CCN(Cc3ccc([N+](=O)[O-])cc3)CC2)cc1 | inconclusive: 18.4 µM [cytotoxic, single point] | –
10 | O=C1c2ccccc2C(=O)C1c1ccc(Cl)cc1 | inactive | –
11 | O=C(Nc1c(C(=O)c2ccc(Cl)cc2)oc2ccccc12)c1cc(=O)c2ccccc2o1 | inactive | –
12 | C(=Nc1ccc(/C=C/c2ccnc3ccccc23)cc1)Nc1ccc(/C=C/c2ccnc3ccccc23)cc1 | inconclusive: 20.6 µM [cytotoxic, single point] | –
13 | Cc1noc(C)c1COc1ccc(C(=O)NCCc2ccc(F)cc2)cc1 | inconclusive: 20.6 µM [cytotoxic, single point] | –
14 | Cc1ccc(Oc2cc(NC(=O)CCCn3nc(C)c([N+](=O)[O-])c3C)cc([N+](=O)[O-])c2)cc1 | inconclusive: 18.4 µM [cytotoxic, partial curve, poor fit] | –
15 | CC(C)NC(=O)c1ccc2c3n(nc2c1)-c1ccccc1CO3 | inconclusive: 16.4 µM [cytotoxic, single point] | –
16 | COc1ccc(NC(=O)c2ccco2)cc1NC(=O)c1ccc(C)c(C)c1 | inconclusive: 13 µM [cytotoxic, partial curve, poor fit] | –
17 | CC(Sc1ccsc1[N+](=O)[O-])C(=O)NCCc1ccc(Cl)cc1 (stereo not drawn) | inconclusive: 29.1 µM [cytotoxic, single point] | –
18 | O=C1c2ccccc2NC(c2cccc(Cl)c2)N1N=C1CCCCCC1 (stereo not drawn) | inconclusive: 25.9 µM [cytotoxic, single point] | –
19 | CCC(Sc1nc2cc(OC)c(OC)cc2c(=O)n1Cc1ccco1)C(=O)NCCOC (stereo not drawn) | inactive | –
20 | C=CCOC(=O)CN1C(=O)c2ccccc2C1=O | inconclusive: 20.6 µM [rising, partial curve, poor fit] | –
21 | O=C(c1ccccc1)N1CCN(C(=O)C23CC4CC(CC(C4)C2)C3)CC1 | inactive | –
22 | Cc1[nH][nH]c(=O)c1C(c1c(C)[nH][nH]c1=O)c1cn(Cc2ccc(Cl)c(Cl)c2)c2ccccc12 | active: 23.1 µM | –
23 | COc1cc(F)c(S(=O)(=O)N2CCOc3ccccc32)cc1OC | inconclusive: 29.1 µM [cytotoxic, single point] | –
24 | Cc1cc(C)c(S(=O)(=O)NCCSCc2ccco2)c(C)c1 | inactive | –
25 | CCOC(=O)C1CCN(Cc2cc(C(C)C)c(O)c(C(C)C)c2)CC1 | inactive | –

2 entries from above, in CSV form.
Row,Structure (SMILES),Potency,"activity change, negative = cytotoxic"
18,O=C1c2ccccc2NC(c2cccc(Cl)c2)N1N=C1CCCCCC1 (stereo not drawn),"inconclusive: 25.9 µM [cytotoxic, single point]",–
24,Cc1cc(C)c(S(=O)(=O)NCCSCc2ccco2)c(C)c1,inactive,–

Later entries

Row | Structure (SMILES) | Potency | activity change, negative = cytotoxic
26 | CCCCCCCN1C(Nc2ccccc2)=NC[C@@H]1CC(C)C | inconclusive: 29.1 µM [cytotoxic, single point] | –
27 | N#CC1=C(N)Oc2cc(N)ccc2C1c1cccc(F)c1 (stereo not drawn) | active: 5.17 µM | –
28 | COc1ccc(C(=O)NNC(=S)NC(=O)c2ccc(Cl)cc2)cc1 | inconclusive: 18.4 µM [cytotoxic, partial curve, poor fit] | –
29 | CCCCC[n+]1ccn(C2=C([O-])c3ccccc3C(=O)/C2=N\S(=O)(=O)c2ccccc2)c1 | inconclusive: 23.1 µM [cytotoxic, single point] | –
30 | Cc1ccccc1CCNC(=O)c1ccc(NC(=O)N2CC(C)Sc3ccccc32)cc1 (stereo not drawn) | inactive | –
31 | CC(=O)c1c(C)[nH]c(C(=O)OCC(=O)NCc2ccc3c(c2)OCO3)c1C | inconclusive: 9.2 µM [cytotoxic, partial curve] | –
32 | Cc1[nH]nc(-c2ccc(OCc3cnn(-c4ccccc4)c3)cc2O)c1Oc1ccc(Cl)cc1 | inconclusive: 29.1 µM [cytotoxic, single point] | –
33 | N/C(=N\OC(=O)COc1ccccc1)c1ccccn1 | inactive | –
34 | COC(=O)c1[nH]c(C)c(/C(O)=C2\C(=O)C(=O)N(CCN(C)C)C2c2cccs2)c1C (stereo not drawn) | inactive | –
35 | O=C1/C(=C\c2cccc([N+](=O)[O-])c2O)SC(=S)N1Cc1ccccc1 | inconclusive: 29.1 µM [cytotoxic, single point] | –
36 | COC1(OC)C(/C=C/c2ccc(C)cc2)C(C#N)(C#N)C1(OC)OC (stereo not drawn) | inconclusive: 29.1 µM [cytotoxic, single point] | –
37 | CC1CCCCC1NC(=O)CCCN1C(=O)c2ccccc2C1=O (stereo not drawn) | inconclusive: 20.6 µM [rising, partial curve, poor fit] | –
38 | CCN1C(=O)[C@@H]2[C@@H]3CN(S(=O)(=O)c4ccc(C)cc4)[C@@H](c4ccccc4)[C@@H]3C(=O)C[C@@H]2C1=O | inactive | –
39 | O=C(CSc1nc2ccsc2c(=O)n1Cc1ccccc1)NCc1ccco1 | inconclusive: 29.1 µM [cytotoxic, single point] | –
40 | O=C(Nc1nnc(Cc2ccc(Cl)cc2)s1)c1ccncc1 | inactive | –
41 | N#Cc1cn(Cc2ccccc2)c2ccccc12 | inconclusive: 23.1 µM [cytotoxic, single point] | –
42 | Cn1c(=O)c2nc(-c3ccccc3)c(-c3ccccc3)nc2n(C)c1=O | inactive | –
43 | O=C(Cc1ccc(-c2ccccc2)cc1)NCc1cccnc1 | active: 14.6 µM | –
44 | Cc1ccc(Cn2c(C3CCCN3c3nc(C)cs3)nc3cc(C(F)(F)F)ccc32)cc1 (stereo not drawn) | inconclusive: 29.1 µM [cytotoxic, single point] | –
45 | Cc1ccccc1NC(=O)c1ccc(NS(=O)(=O)c2cc(C(C)(C)C)cc(C)c2C)cc1 | inconclusive: 23.1 µM [cytotoxic, partial curve] | –
46 | Cc1ccc(S(=O)(=O)NCc2ccc(C(=O)N3CCN(c4ccccn4)CC3)cc2)cc1 | inactive | –
47 | CCCCNc1nc2c(-c3cccc(C)c3)nnn2c2ccccc12 | inactive | –
48 | Cc1cc(C)c(S(=O)(=O)NCc2ccccn2)cc1C | – | inconclusive: 1.8%
49 | COc1ccc(CNS(=O)(=O)c2ccc3c(c2)N(C(C)=O)CCO3)cc1 | inactive | –
50 | Clc1ccc(CSc2ccc(-c3ccccn3)nn2)cc1 | inconclusive: 29.1 µM [cytotoxic, single point] | –

Row | Structure (SMILES) | Potency | activity change, negative = cytotoxic
51 | CC(C)(C)OC(=O)N1CCCN(C(=O)Nc2ccc(C(F)(F)F)cc2)CC1 | inconclusive: 29.1 µM [rising, single point] | –
52 | CCCN(CCC)C(=O)Cn1c(=O)n(CCCCCC(=O)Nc2ccccc2)c(=O)c2sccc21 | inactive | –
53 | COc1ccc(S(=O)(=O)Cc2ccccc2)cc1N | inconclusive: 29.1 µM [cytotoxic, single point] | –
54 | CCOC(=O)c1c(NC(=O)CCl)sc(CN(C)C)c1-c1ccccc1 | inconclusive: 20.6 µM [cytotoxic, single point] | –
55 | CCOc1ccc(CNC(=O)CCS(=O)(=O)c2ccc3c(c2)NC(=O)CO3)cc1OC | inactive | –
56 | CCc1sc(Nc2cccc(Cl)c2)nc1-c1cc2cccc(OC)c2oc1=O | inactive | –
57 | O=C(O)c1cccc(N/N=C/c2sc(N3CCOCC3)nc2-c2ccccc2)c1 | inactive | –
58 | CCc1ccc(C(=O)CCC2CCCCC2=O)cc1 (stereo not drawn) | inactive | –
59 | Cc1cc(C)nc(Nc2nc(C(N)Cc3ccc(F)cc3)cs2)n1 (stereo not drawn) | inconclusive: 29.1 µM [cytotoxic, single point] | –
60 | OC(c1cccc(Cl)c1)c1nccc2ccccc12 (stereo not drawn) | inactive | –
61 | CCCCc1c(-c2ccccc2OC)ncn1CCc1ccc(Cl)cc1 | inconclusive: 29.1 µM [cytotoxic, single point] | –
62 | COc1ccc(C2NC(=O)NC3=C2CCc2ccccc23)cc1 (stereo not drawn) | active: 18.4 µM | –
63 | O=C(N/N=C/c1ccc(Br)s1)c1ccccc1[N+](=O)[O-] | inactive | –
64 | COc1ccc2oc(=O)c(-c3nnc(NCc4ccco4)s3)cc2c1 | inconclusive: 29.1 µM [cytotoxic, single point] | –
65 | CCCn1c(COc2cccc(C)c2)nc2ccccc21 | inactive | –
66 | N=C(N)c1ccc(/C=C/c2ccc(C(=N)N)cc2O)cc1 | inconclusive: 9.2 µM [cytotoxic, partial curve, poor fit] and inconclusive: 23.1 µM [cytotoxic, single point] | –
67 | CCN(CC)S(=O)(=O)c1cccc(NC(=O)COC(=O)/C=C/c2cccs2)c1 | inconclusive: 0.0065 µM [rising, full curve] | –
68 | Cc1cccn2c(=O)c3cc(C(=O)NCCC4=CCCCC4)n(C)c3nc12 | inconclusive: 18.4 µM [cytotoxic, single point] | –
69 | CSc1nnc(NC(=O)c2ccc3c(c2)OCO3)s1 | inconclusive: 2.91 µM [cytotoxic, partial curve, poor fit] | –
70 | Cn1c(-c2ccco2)nc2cc3ccccc3cc21 | active: 18.4 µM | –
71 | CCOC(=O)C1(C(=O)OCC)C(C(=O)c2ccccc2)C1c1ccccc1 (stereo not drawn) | inconclusive: 20.6 µM [rising, single point] | –
72 | Cc1cccc(NC(=O)c2nc[nH]c2C(=O)N[C@@H](CC(C)C)C(=O)OC(C)(C)C)c1 | active: 11.6 µM | –
73 | O=C(C1=C[C@@H](c2csc3ccccc23)C[C@@H](OCCCCO)O1)N1CCN(Cc2ccc3c(c2)OCO3)CC1 | inconclusive: 29.1 µM [cytotoxic, single point] | –

Record cards, as listed above:
CCCCc1c(-c2ccccc2OC)ncn1CCc1ccc(Cl)cc1 is listed as Potency: inconclusive: 29.1 µM [cytotoxic, single point]
Cc1nn(-c2ccc(N3CCOCC3)nn2)c(C)c1CCC(=O)N1CCN(C)CC1 is listed as Potency: inactive
CCOC(=O)c1c(NC(=O)CCl)sc(CN(C)C)c1-c1ccccc1 is listed as Potency: inconclusive: 20.6 µM [cytotoxic, single point]
COc1ccc2c(c1)C(C)=CC(C)(C)N2S(=O)(=O)c1ccc(Br)cc1 is listed as Potency: active: 4.11 µM
